Reference: PMC11651612
Results are given in words; binding and its absence hold for the method and conditions named. In cells and extracts the contact can be indirect. A yes stands for co-enrichment or nearness to the bait. Other partners may have been found.

T1: Cdc3-mCherry (C. neoformans) (UniProt J9VUF2)
T1 sequence: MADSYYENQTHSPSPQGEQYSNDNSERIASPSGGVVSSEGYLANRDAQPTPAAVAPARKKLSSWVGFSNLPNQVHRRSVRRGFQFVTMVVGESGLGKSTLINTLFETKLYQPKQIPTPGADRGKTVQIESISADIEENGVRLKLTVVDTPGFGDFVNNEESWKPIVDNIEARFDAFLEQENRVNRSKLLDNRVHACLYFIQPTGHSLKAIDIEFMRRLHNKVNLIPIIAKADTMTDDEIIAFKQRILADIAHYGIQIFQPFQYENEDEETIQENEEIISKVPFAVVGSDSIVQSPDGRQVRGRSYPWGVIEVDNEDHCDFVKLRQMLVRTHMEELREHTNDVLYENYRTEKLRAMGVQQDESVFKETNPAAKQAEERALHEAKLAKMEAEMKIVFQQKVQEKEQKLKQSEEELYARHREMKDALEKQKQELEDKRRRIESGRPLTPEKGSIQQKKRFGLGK


Molecular target: T1, Cdc3-mCherry (C. neoformans)
Assay: affinity purification with mass spectrometry; mCherry-tagged septin captured from C. neoformans lysate on RFP-Trap agarose, 4 h at 4°C, washed with TBS with 2 M urea pH 7.5; GeLC-MS/MS; untagged H99 as negative control; hits logFC >2 and adjusted p <0.001 (text-named hits <0.05); exponential cultures at ~25°C or shifted to 37°C for 2 h; N = 5

Binder	binding
Protein CASP (protein, UniProt J9VZ01 1-673) MAEQNFSAALATWKEINLSELQKNLDTTAVELVDNQKENLVGRKKLAEQTREFKKLPDDAEKFAAIKVLLKAYQAEIDALTRRSKMSETSFLNVYKLLADAPDPYPLLDAAVDQTVKVAEARMLESELVRLREENGELKKSLGEASNLEEKRKKAESKVEQLEEKMDDLIQERVTQKENELNAEYDERMRNYEEREKDLQRQVEMVKKQLRDLHMSNESAEAKLLNANQRQEQDVAARLAELDMVAADLARANERVATVERRNEILRSEIESVRSGSQQADKVKGLEAQISELEAEASRILAALDAAKDAKAEADRQFKKQAEESTKEITARTTEVDGLKAKVKAMADYDEIKRELEIMKYVEFSGADFGDDDGEEPRLPDPNASVANKQRGQSLEKLLTSKNRRLLEDLTKLRVSWEDLSSEHAKAEEMIEGLQVDLALQRELVEKLEGDLMVLNNREDRAGTPGQGLAGLDIGNKPDGRASPANSGSQDTSILPIVTSQRDRFRQRNAELEDELRKQFETISDLRTEVKSLQTDNLKLYEKVRYMGSYRDSSFAKAGPSGGAYSSGGGSGGLLTGVLGRRDEEIGKYKDKYDESLNPFEAFKGREAQRAIQALNPVERGVFSLTRAIVGNKRARNLFILYAGSLHILILFILWNTMAASDSTSHPPVTIQP	binds
NADH-ubiquinone oxidoreductase 21.3 kDa subunit (protein, UniProt J9W086 1-216) MARPTALLRNAANAAKPKPMSADHTKYHVAPTGFWKKFRDTVVVNPEISSGLPIPTENRYPQPASRPETYATPATKASDPAFNPYWKRDARRSYPQTSVITQSHLSTLLLSSPALASLPSPETAVETKWESSGIAPASPPSDAQQVVPASKVPALADVLQKLPEGKAYLGGGLTTGQGEGLPPVPPPAQRNKKWVPKAGEPVPHGKYDYFPMYTVV	binds
Protein-serine/threonine kinase (protein, UniProt J9VW37 1-446) MSKFRISSALWDKIHHFASFPQTGVSLQQMILFGQNPSQGTLLKASQFLSEELPIRLSHRVVELEGLPDGLSKMPSINTVKEWYAQSFDELVSFPRPRLKPELEDILRIPPAPTQPFPSATPNPSLDPLMREGPVGSGFVSERHIGTGGNGIGVGKRLRIPIERRYFSPPPPTIIYPPEVHDYNEKFTQLLQVIKHRHDPTVTTVAQGVLEWKRTQKTSVIGTPIQEFLDRFYMSRIGIRFLIGQHIALNTLPPHPDYVGIICTRANIHDICQEAIDNARYVCEEHYALFKSPNIKLVCPPNLTFPYIPGHLSHICFELLKNSLRAVVERYGVDNDDEYPPIKVVVVEGREDITIKISDEGGGIPRSAIPHIWTYLYTTMSDEGLEDTIQGSDFKAPMAGFGYGLPLSRLYARFFGGDLRLISMDGYGTDVYISLNKLSSSREPLQ	binds
Cystathionine beta-synthase (protein, UniProt J9VM44 1-398) MSNSTTQPQHHWQGVLSSALDAVGHTPLIRLDRIAAEEGVKCNLLGKCEFFSAGGSVKDRIAKRMIEHAEKSGQLIPGKSVVIEPTSGNTGIGLALACALKGYKCIITLPAKMSLEKEVMLRALGAEIVRTPTEAAFDSPESHIGVARTLQQAIPDAVILDQYSNPNNPLSHYFGTYEEIMYALKTSNLPRKDMTLLVAGAGTGGTITGLARAIRDSEAHIYPSDSDCSNLSNGKSNGLYASRALILAVDPVGSILGGGEPGNYEVEGIGYDFFPDVLDREPQLIDEWLKTTDDESFEATKRLIKREGLFVGGSSGSALAGALRYLQSPAGRHIAEDPEANVVILFPDGVRNYMSKPWFLTENNAQEGWELRSKIKEAIGRDLGDVHGGRAINNVNRH	binds
Fe-S cluster assembly protein DRE2 (protein, UniProt J9VZC6 1-321) MPAPVPPAAPGHSSTPATQLVLGSMQRAPEYQAIITSLKSAASPSSLVQGEMVDRILDNATTLPPPPLTIHLVLPLPLPPNLLPAIPPSTQIFIHIPADAESQLGTLHAALASHSFTPILPTPSPSTLAYTSPSAPSLPTVTSVPSPAPSSSTSVTLGGARPLQLRRNGDKARKAALWAIDSPLIPDGGKSLLTPADRTRPECVFPAENGKPVKRRRACKDCTCGLKELEQEEDAQTSAAVKEAQKAFFLEGDDDIPENLKKATEGMEGIWPVDKRAEAKKTSSCGSCYLGDAFRCSSCPYLGLPPFKPGEQVQVSIGDDI	binds

Results, then the binder that gave them:

binding	Binder
binds	General negative regulator of transcription subunit (protein, UniProt J9VW66 1-692) MALRKLQAEIDRTLKSVATGVEVFEATFDKLNYATNTTQKDKLENDLKTQIKKLQRMRDQIKAWLGNGDIKDKTALLENRRLIETQMERFKALEKETKMKAFSKEGLIAQSKLDPAEKAKRDMIDWIGSTTDELSRQIEQTEAEVESLQMGKKKKQAGERLDELEELNERREWHIGRLEVVQRMLENGQLTVGDVEDIQEDVKYFLEANMEEDFDFDNGIYDELNLQDEEDFHDYLHEHPSATDEPEPEPEPIASAPVPKTPAKEKEDKKATPHRLSKSESRDKEEEIPPSPMVVKKTPSRKTTLDKDKKDKKDKEKEDKERKDLEREEKEREERSSSSQPTPSKPVPLPPIKYAAAAAAAVGGTVSASAPSQTSLSAPSENSRDETVASPDEIAAAPISSSLPPPPPGLSRSPSQAATPQVSSPGTPGLQSHAPSIGTGAADVATPSQAPGSAIPPPGYPLPPSSSSAESSRAAAQAQVAAEQAQAQAQAQAQALAQAQAQAQTQSQLSAAQIQAQLQAAQDVQGQAGVMGNLMQSFEVAKEISKRRSDDANELHAALEDSFANAPQQMDAEPPRYYHPQNPIKTPSYYPQSRLPILEDKSIYSRLELDQLFYIFYYMTGTYEQWLAARELKKQSWRFHKQYLTWFQRAHNPQAITSDYEQGGYYYFDWENSWCQRRKSDFRFEYRWLSDH
binds	RBR-type E3 ubiquitin transferase (protein, UniProt J9VWC9 1-523) MSSDGENEDLAYEDDYDDAFDADDAMDDSTSEPDDFDVLSPTIETAPSKKPYDVNYTVYDLKEIIGMQKKMIDEVAALLVIPASTAAALLRHFNWNTEKLQEVFWTEPDATLLAAGLSPPSSPSTSTQPLPGSQSGSFECPICFTDYEGKFAQQDTFAMGCGHRFCKTCWGEYLTGKIKEEGESGRIQCMESGCKRVVKGEMVKELAGDKTSDRYYNLLNAAFVSDSPNLRWCPHPDCPYIIGCTQAPQRMLNQLVPTVECKCGKDLCFGCGYAASHRPVICKIVRLWEKKCADDSETANWLQANTKECTKCQSTIEKNGGCNHMTCKKCKWEFCWVCMGPWSEHGTNWYQCNRFDEKSGIDARDVQAKSRASLERYLHYFNRWANHEHSAKLDTEFYAKTEKKMEQMQDAGNLSWIEVQFAKQAVDAVIRARITLKWTYCMAFYLKRNNQTELFEDNQRDLERAVENLSYLLEQNIGEPESIAKLRHDVTNQAAYVQKRHEIMMDDTLRGHLEHRWEFTVDV
binds	Threonine aldolase (protein, UniProt J9VK75 1-458) MVRAACFKYASLPVRISTPIIFPTRTLATTAPIAMPIASSKSLADVTPDVGGQANVDQLHRVSRDFRSDTITIPTDAQLLCSLRATRGDDVYGEDTSTTALEKRIAKLTGKEAAMFAVSGTMTNQLAIRTHMKQPPHSVITDWRAHVHKMEAGGIAMFSQATTHQLVPENGLHLTVEDIEPALQLGTNIHIAPTKLICLENTLSGMIFPQEEIVKIGEMARKHDIGMHLDGARIWNVAADVIAKRGLNPNKEEDLQTVLTELIAPFDSASLCLSKGLGAPIGSALVGPKEFIDRAKWFRKAFGGGIRQAGGIAASADYAITHHFPRLIKTHELASRLEQGLRELGCDILAPVDTSMVFFQPKPIGLPLDAVMARLAALPDPIIIGGQRCVVHHQISPQAIEDFIGCVAEMKKEKEENGEYKVTALGQEEKDKLSRFVSPEIKNTTSEAGLRTKAALGY
binds	Protein BFR2 (protein, UniProt J9VUN1 1-457) MSGPSLAQQLKQLHSNNVSVPDPESAYSNLDSHDIQRKGDEGREHYVDVGPSRLRMELGGTGGGTLTGPKYEGVKTGRMKIFDDDDEDEEENGGEEGSERYEDEDEEDEDEDEDEDDEEDDEDEDEEGESEDEDEEEQPQPRANGSKQALDPVASLRNSRLKDVEKGQAIRKQKALFESLITLRITFQKALTASNTVPATLPEDPENELASKKASILKSLSELNERLFTLRESIILPGESEEEVSLGKRKRAEGDDAQGEAYWIEAAKESLGIADRSHPQLVPILNKWSSKIQAASLQLGSKQAGGSKFLQQMKNGSGGVVEAIESGINSKREAEKTLMESEETGYRALLREVIESRSGSGPAADLTHLRREKKKKREAERGGSKGRKLRYTVHEKAQNFVVPIPLSQGWHEEQVDELFSSLFGGVGMKGATAEKSVGLDVGNADEGLAELGGLRVF
